Laboratory results: PubChem BioAssay AID1671190 (National Center for Advancing Translational Sciences (NCATS), 2021)
About 6,100 (1.1%) of roughly 580,000 compounds were called active. Inconclusive means that the source gave no clear call. Such entries were picked first, then a sample of the others. The call rests on the fitted dose curve; in most records, active means well fitted inhibition curve with a large enough effect; inconclusive means small, poorly fitted or top-dose-only effect, or another doubt; inactive means no such curve, though single readings can be large or run the other way. Where the call is inconclusive, the potency comes from a doubtful curve fit.

By UniProt entry, the sequences of proteins in these tests, tags left out. Where a name states a change or a piece, a line headed by the entry shows the natural chain unless it says otherwise.
UniProt P18054: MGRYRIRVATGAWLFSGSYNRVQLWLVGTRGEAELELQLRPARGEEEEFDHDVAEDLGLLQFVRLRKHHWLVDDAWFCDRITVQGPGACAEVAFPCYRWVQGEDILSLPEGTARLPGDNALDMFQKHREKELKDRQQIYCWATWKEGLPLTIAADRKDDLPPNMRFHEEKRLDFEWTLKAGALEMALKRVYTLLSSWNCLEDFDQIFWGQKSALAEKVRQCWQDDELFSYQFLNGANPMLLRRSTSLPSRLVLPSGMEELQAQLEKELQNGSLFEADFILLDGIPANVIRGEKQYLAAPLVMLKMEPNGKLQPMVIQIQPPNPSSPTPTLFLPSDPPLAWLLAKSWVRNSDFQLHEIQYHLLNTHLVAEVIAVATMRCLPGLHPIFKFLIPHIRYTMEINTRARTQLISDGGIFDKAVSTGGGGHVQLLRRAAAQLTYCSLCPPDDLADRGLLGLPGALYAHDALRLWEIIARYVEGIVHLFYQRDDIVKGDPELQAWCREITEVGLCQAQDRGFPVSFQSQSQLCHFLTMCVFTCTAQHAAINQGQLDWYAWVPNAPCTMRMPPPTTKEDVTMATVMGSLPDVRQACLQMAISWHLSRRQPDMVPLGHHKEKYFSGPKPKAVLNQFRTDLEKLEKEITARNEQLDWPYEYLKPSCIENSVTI

What follows are compounds tested against Polyunsaturated fatty acid lipoxygenase ALOX12 (Homo sapiens) (UniProt P18054) (assay: Primary qHTS assay for inhibitors of human arachidonate 12S-lipoxygenase (ALOX12): Round 2). Conditions: purified 12hLO, xylenol orange hydroperoxide absorbance; activity change, negative = inhibition: at 108 µM (top of the series) unless noted.
In short: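 Purified human 12hLO (150 nM final) in 25 mM Hepes, 0.01% Triton X-100, pH 7.0 was preincubated 15 min at room temperature with compound. Then 40 uM arachidonic acid was added, 30 min. Hydroperoxide was read by Fe-XO absorbance ratio 573/405 nm.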
On the % scale 0 is the no-effect control and ±100 the full control effect; potency means the concentration at half of the fitted maximal effect.

SMILES | activity change, negative = inhibition | Potency
Cc1ccc(-c2cnc3ccccc3n2)cc1C | inactive: -7.54% | 
CCOc1ccc(C(CC(=O)Nc2ccc(CC)cc2)N2Cc3ccccc3C2=O)cc1OC (stereo not drawn) |  | inconclusive: 50.1 µM [inhibitor, partial curve, poor fit]
Cc1ccc(/C(COc2ccc3c(C)c(Cc4ccccc4)c(=O)oc3c2)=N/O)cc1 |  | inactive
COc1cccc(/C=C2/CCC(CN(C)C)C2=O)c1 (stereo not drawn) |  | inconclusive: 44.7 µM [inhibitor, partial curve, poor fit]
O=C1CCCC2=C1C(c1ccncc1)c1c(nc(SCc3ccccc3)[nH]c1=O)N2 (stereo not drawn) | inactive: 6.58% | 
Cc1noc(C)c1CC(=O)Nc1nc(-c2ccc(F)cc2)c(C)s1 |  | inconclusive: 44.7 µM [inhibitor, partial curve, poor fit]
C1CCCC(N2CCNCC2)CC1 |  | inconclusive: 17.8 µM [inhibitor, partial curve, poor fit]
C#CCN(C[C@@H]1[C@@H](OC(=O)NCc2ccccc2)[C@@H](OC(=O)NCc2ccccc2)Cn2c(=O)n(CCCCCC)c(=O)n21)S(=O)(=O)c1ccc(C)cc1 | inactive: -5.77% | 
Nc1ccc2[nH]ncc2c1 |  | inactive
COc1ccc2c(c1)c(C(C(=O)O)N1CCN(c3ccc(C)cc3C)CC1)cn2CCC(=O)O (stereo not drawn) |  | inconclusive: 44.7 µM [inhibitor, partial curve, poor fit]
Cc1ccc(C(=O)c2sc(Nc3cc(Cl)ccc3C)nc2N)cc1 |  | inconclusive: 14.1 µM [inhibitor, partial curve, poor fit]
Cc1ccc2nc(N3CCOCC3)c(C=O)cc2c1 |  | inconclusive: 39.8 µM [inhibitor, full curve, poor fit]
c1ccc(Cc2noc(CN3CCN(CCOc4ccccc4)CC3)n2)cc1 |  | inconclusive: 0.398 µM [inhibitor, full curve, poor fit]
Fc1ccc(-c2cc(CC3(NCc4ccc5c(c4)OCO5)COC3)no2)cc1 | inactive: 4.31% [at 176 µM] | 
N#Cc1ccc(C(=O)N2CCN3C(=O)N(Cc4ccccc4)C(=O)[C@H]3C2)cc1 | inactive: -1.19% [at 176 µM] | 
COc1ccc(-c2csc(NC3OC(=O)c4c3ccc(OC)c4OC)n2)cc1 (stereo not drawn) | inactive: 2.99% | 
CCN(CC)CCCn1c(=S)[nH]c2cc(Cl)ccc2c1=O |  | inconclusive: 50.1 µM [inhibitor, partial curve, poor fit]
Cc1ccc2nc(-c3ccccc3)cc(C(=O)N3CCN(C(=O)c4ccco4)CC3)c2c1 | inactive: -6.07% | 
O=C(NCCc1ccccc1F)C1CC(=O)N(c2cccc(C(F)(F)F)c2)C1 (stereo not drawn) | inactive: -11.1% | 
O=C1NC[C@H](CCCCN2C[C@H](Cc3ccc(O)cc3)N(CCC3CCCCC3)C(=O)C2=O)N(CCC2CCCCC2)C1=O |  | inconclusive: 44.7 µM [inhibitor, partial curve]
Cc1cc(Cl)ccc1OCC(=O)NCCOC(=O)Nc1sc(=S)n(C)c1C | inactive: -14.1% | 
O=C(c1cccs1)N1CCCn2cc(-c3ccc4c(c3)OCO4)nc21 | inactive: 28.8% | 
Cc1cccc(NC(=S)NCc2ccc3[nH]c4c(c3c2)CCCC4)c1 |  | inconclusive: 20 µM [inhibitor, partial curve, poor fit]

SMILES | activity change, negative = inhibition | Potency
O=C(Cn1nc(C(=O)O)c2ccccc2c1=O)NCc1ccc(Cl)cc1 |  | inconclusive: 44.7 µM [inhibitor, partial curve, poor fit]
CCC/C(=N/NC(=O)C(C)(C)O)c1ccccc1 | inactive: 22.3% | 
CN(C)S(=O)(=O)N1CCN(S(=O)(=O)N2CCOCC2)CC1 |  | inconclusive: 0.501 µM [inhibitor, full curve, poor fit]
O=C1NCc2ccccc2CC12CCCN(Cc1ccsc1)C2 (stereo not drawn) | inactive: 6.76% [at 6.33 µM] | 
CC1Cc2ccccc2N1S(=O)(=O)c1cc(Cl)ccc1Cl (stereo not drawn) |  | inconclusive: 8.91 µM [inhibitor, full curve, poor fit]
CC(C)NC(=O)c1ccc2sc([C@H]3C[C@H](O)[C@@H](CO)O3)nc2c1 |  | inconclusive: 100 µM [inhibitor, single point]
CCc1ccccc1NC(=O)CN1C(=O)NC2(CCCCC2)C1=O |  | inconclusive: 8.91 µM [inhibitor, full curve]
O=C(NC[C@H]1OC[C@@H](N(Cc2ccccn2)Cc2ccccn2)[C@@H]1O)C1CC1 | inactive: 75.9% [at 176 µM] | 
Cc1ccc2c(c1)C(c1ccccc1)CC(=O)O2 (stereo not drawn) |  | inconclusive: 126 µM [inhibitor, single point]
Cc1ccc(Sc2c([N+](=O)[O-])c(C)nn2C)cc1 |  | inconclusive: 112 µM [inhibitor, partial curve, poor fit]
CCN(CC)c1ccc(/C=C2/C(=O)ON=C2C)cc1 | inactive: 9.82% | 
CN(C)c1ccc(C(=O)N2CCC3(CC2)NC(=O)N(c2ccc(F)cc2)N3)cc1 |  | inconclusive: 11.2 µM [inhibitor, full curve, poor fit]
CC(CN1CCN(C)CC1)OC(=O)c1cccc(Cl)c1 (stereo not drawn) |  | inconclusive: 44.7 µM [inhibitor, partial curve, poor fit]
CCN(C(=O)CSC1CCCC1)C1CCCCC1 | inactive: -16% | 
CCOc1cccc(C(c2c[nH]c3ccccc23)c2c[nH]c3ccccc23)c1O |  | active: 3.98 µM
COc1ccc(NC(=O)C2CCCN(c3nnc(C)c4c(C)n(-c5ccccc5)nc34)C2)cc1Cl (stereo not drawn) |  | inconclusive: 112 µM [inhibitor, partial curve, poor fit]
O=C(O)c1cc(Br)ccc1Cl |  | inconclusive: 17.8 µM [inhibitor, full curve]
O=C(C1CCCC1)N1CCC(CC2CC(c3cccc(Br)c3)=NO2)(C(=O)NCC2CCCCC2)CC1 (stereo not drawn) |  | inconclusive: 0.355 µM [inhibitor, full curve, poor fit]
O=C(Nc1ccc(-c2noc(CCc3ccccc3)n2)cc1)c1ccco1 | inactive: 0% | 
COc1ccccc1-n1c(SCC(=O)NCc2ccc3c(c2)OCO3)nc2cc([N+](=O)[O-])ccc21 |  | inconclusive: 44.7 µM [inhibitor, partial curve]
CCCN(C)c1ccc(/C=N/NC(=S)Nc2ccc(CC)cc2)cc1 |  | inconclusive: 44.7 µM [inhibitor, partial curve, poor fit]
COc1cc(CN2CCNC(=O)C2CC(=O)N(C)CCCN2CCOCC2)cc(OC)c1 (stereo not drawn) |  | inconclusive: 44.7 µM [inhibitor, partial curve, poor fit]
Cn1c(N)c(C(=O)CSc2nnc(NC3CCCCC3)s2)c(=O)n(C)c1=O |  | inconclusive: 50.1 µM [inhibitor, partial curve, poor fit]

SMILES | activity change, negative = inhibition | Potency
COc1ccc(NCCc2ccccn2)cc1 |  | inconclusive: 1.41 µM [inhibitor, full curve, poor fit]
COc1ccc(C(=O)OCc2nc(-c3ccc(F)cc3)no2)cc1S(=O)(=O)N1CCCC1 | inactive: -39.1% | 
Cc1ccc(NC(=S)NC(=O)C2CCC2)cc1C |  | inconclusive: 35.5 µM [inhibitor, single point]
COc1ccc2cc(CNC3CCCc4ccccc43)ccc2c1 (stereo not drawn) |  | inconclusive: 39.8 µM [inhibitor, single point]
COc1cc2c(Oc3ccc4[nH]c(C)cc4c3F)ncnc2cc1OCCCN1CCCC1 | inactive: -6.9% [at 57.4 µM] | 
NNC(=O)c1cc(O)c(O)c(O)c1 |  | inconclusive: 50.1 µM [inhibitor, partial curve]
C[N+]1(CCCOC(=O)C2(c3ccccc3)CCCC2)CCOCC1 |  | inconclusive: 22.4 µM [inhibitor, partial curve, poor fit]
CC(C)c1ccc(N2C(=O)CSC23C(=O)N(Cc2ccccc2)c2ccccc23)cc1 (stereo not drawn) |  | inconclusive: 100 µM [inhibitor, partial curve, poor fit]
COCCn1c(=O)c(-c2cc(F)cc(F)c2)nc2cnc(N3CCN(C)CC3)nc21 |  | inconclusive: 25.1 µM [inhibitor, partial curve, poor fit]
CN1C=CC=C/C1=C1\SC(=S)N(CC(=O)O)C1=O |  | inconclusive: 44.7 µM [inhibitor, partial curve, poor fit]
N/C(=N\OC(=O)c1ccc([N+](=O)[O-])cc1Cl)c1ccccn1 | inactive: 7.47% | 
COc1ccc(NC(=O)c2cc3c(N4CCSCC4)nc(C)cn3n2)cc1OC | inactive: 1.64% | 
CC(=O)NC(CC(=O)OCC(=O)Nc1cc(S(=O)(=O)N2CCCCC2)ccc1C)c1ccccc1 (stereo not drawn) |  | inconclusive: 31.6 µM [inhibitor, partial curve, poor fit]
Cc1cc(C)cc(NC(=S)NCCO)c1 |  | active: 14.1 µM
COc1cc(/C=C2/C(C)=C(C#N)c3nc(N)c(C#N)c(C)c32)ccc1OCC(=O)O |  | inconclusive: 56.2 µM [inhibitor, partial curve, poor fit]
CSc1nc(SCC(=O)O)c2sc3nc(-c4ccccc4)c4c(c3c2n1)CCC4 |  | inconclusive: 79.4 µM [inhibitor, partial curve, poor fit]
Clc1cc(Cl)c2nc(N3CCCC3)sc2c1 |  | inconclusive: 0.501 µM [inhibitor, partial curve, poor fit]
Cc1cccc2c1nc1n2[C@@H](CNC2CCN(C)CC2)COC1 | inactive: 74.1% [at 176 µM] | 
CC(=O)N1CCN(c2ccc(NC(=S)NC(=O)COc3ccc(C(C)(C)C)cc3)cc2)CC1 |  | inconclusive: 39.8 µM [inhibitor, single point]
Cc1cc(NS(=O)(=O)c2ccc3oc(=O)c4ncn(C)c4c3c2)ccc1Br |  | inconclusive: 56.2 µM [inhibitor, partial curve, poor fit]
O=C(c1ccc(NC(=S)NCc2ccc(Cl)cc2)cc1)N1CCCCC1 | inactive: -11.3% | 
C#CCOCCOCCOCCNc1nc(N2CCN(C(=O)[C@H](C)n3cc(CCC(=O)O)nn3)CC2)nc(N2CCN(C(=O)[C@H](C)n3cc(CCC(=O)O)nn3)CC2)n1 |  | inconclusive: 20 µM [inhibitor, partial curve, poor fit]

In the list so far, these contain a nitro group on carbon.
SMILES | activity change, negative = inhibition | Potency
Cc1ccc(Sc2c([N+](=O)[O-])c(C)nn2C)cc1 |  | inconclusive: 112 µM [inhibitor, partial curve, poor fit]
COc1ccccc1-n1c(SCC(=O)NCc2ccc3c(c2)OCO3)nc2cc([N+](=O)[O-])ccc21 |  | inconclusive: 44.7 µM [inhibitor, partial curve]
N/C(=N\OC(=O)c1ccc([N+](=O)[O-])cc1Cl)c1ccccn1 | inactive: 7.47% | 
